The target of the test is T1, IRS-1 (Y1229) phosphopeptide DLSApYASISFQ, SPOT array.
T1 sequence (peptide, phosphotyrosine at position 5 (Y1229); membrane-bound): DLSAYASISFQ
Kind of test: peptide or protein array; SPOT array of 192 membrane-bound 11-mer phosphotyrosine peptides; GST-SH2 0.25 uM in TBS-T with 5% nonfat milk and 1 mM DTT, 1.5 h, room temperature; anti-GST and Alexa-Fluor-680 secondary, Li-Cor Odyssey; array positive >3X the array mean, array negative <1X, indeterminate between; both purified.

The chains behind the UniProt entries cited, without tags or fusion partners. Residues count along the entry.
UniProt P06241, residues 149-246: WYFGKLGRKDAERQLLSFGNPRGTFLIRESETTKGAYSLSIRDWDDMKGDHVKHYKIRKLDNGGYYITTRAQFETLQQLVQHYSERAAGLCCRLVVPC

These are yes or no findings as the source states them, for the method shown.

This passage reports binding results from paper PMC3514216, “SRC Homology 2 Domain Binding Sites in Insulin, IGF-1 and FGF receptor mediated signaling networks reveal an extensive potential interactome” (Cell Communication and Signaling : CCS, 2012).

With “GST-Fyn SH2 domain (from UniProt P06241 149-246) (domain or fragment)”, the binding entry was “no binding (tested: 0.25 uM)”.
